According to the supplement of paper PMC12578635:
The other results are listed elsewhere or left out. No stated cut-off is given here; in the data, active = 150% or more and inactive = the rest. Many values rest on one well or one pass, so single values are uncertain.

What follows are molecules tested on Staphylococcus aureus JE2-lux inside RAW 264.7 macrophages (assay: intracellular bacterial bioluminescence relative to DMSO vehicle; higher = higher intracellular bacterial metabolic activity). Settings: 10 µM; treatment time 4 h; gentamicin 50 µg/ml.

Intracellular bacterial bioluminescence, inactive:
CC(=O)N1c2ccc(NC(=O)CSc3nccc4ccccc34)cc2CC1C (stereo unspecified) 47.9%
Cc1nc(-c2cccs2)c(CC(=O)NCc2ccc(Cl)cc2)s1 66%
Cc1ccccc1CNc1nc(NCCO)nc2c1cnn2C 113%
CCOC(=O)c1c(NC(=O)CSc2nnc3ncccn23)sc(C)c1C 22.1%
Cc1nc2ccc(NC(=O)c3cccc(NS(=O)(=O)c4ccc(F)cc4)c3)cc2s1 100%
O=C(Cn1c(=O)n(CCc2ccccc2)c(=O)c2c3c(sc21)CCCC3)Nc1ccc(F)c(F)c1 98.3%
Cc1cc2cc3c(cc2nc1NCCNC(=O)c1ccco1)OCCO3 97.5%
CCOC(=O)c1cnc2cc(OC)c(OC)cc2c1O 123%
COc1ccc(OC)c(Nc2ncc3c(n2)CCNC3)c1 101%
Cn1c2c(c(=O)[nH]c1=O)C(c1ccncc1)C1=C(CC(C)(C)CC1=O)N2 (stereo unspecified) 94%
Cc1cc(=O)[nH]c(N2CCN(C(=O)N3CCCCC3)CC2)n1 96.6%
Cc1ccc2c(c1)C(=O)C(=O)N2CCn1c2ccccc2c2nc3ccccc3nc21 80.7%
Cc1nnc2ccc(C(=O)N3CCN(Cc4ccccc4)CC3)cn12 124%
Cc1cc(NC(=O)COc2ccccc2F)n(-c2ncnc3c2cnn3-c2cccc(C)c2C)n1 127%
Cc1cc(C(=O)NCc2c[nH]nc2C)c2cccc(-c3ccc(F)cc3)c2n1 107%
CCN(CC)c1cc(C(=O)O)c2cc(NC(=O)CC(C)C)ccc2n1 120%
CC1CN(S(=O)(=O)c2ccc(NC(=O)CCN3C(=O)c4ccccc4C3=O)cc2)CC(C)O1 (stereo unspecified) 72.5%
O=C(c1ccco1)N1CCN(c2ncnc3c(-c4ccc(Cl)cc4)nsc23)CC1 105%
Cc1ccc(C2C3=C(CC(C)(C)CC3=O)Nc3nc(SCCC(C)C)[nH]c(=O)c32)s1 (stereo unspecified) 106%
Cc1nnc(SCC(=O)Nc2ccc3c(c2)OCCO3)s1 114%
Cc1sc2nc(SCC(=O)NCCOCCO)nc(N)c2c1C 108%
CC1CCc2nc3ncn(CC(=O)NC4CCCC4)c(=O)c3cc2C1 (stereo unspecified) 104%
NS(=O)(=O)c1ccc(NC(=O)CN2C(=O)SC(=C3CCCCC3)C2=O)cc1 72.7%
Cc1cccc(NC(=S)N2CCC(n3c(C)nc4cc(F)ccc43)CC2)c1C 72.8%
Cc1cc2cc(CCNC(=S)Nc3ccccc3F)c(=O)[nH]c2cc1C 65.9%
CCS(=O)(=O)c1cccc(C(=O)Nc2cccc(-c3nc4ccccc4o3)c2)c1 41.8%

Quoted from above, 2 compounds:
Intracellular bacterial bioluminescence, inactive:
Cc1cccc(NC(=S)N2CCC(n3c(C)nc4cc(F)ccc43)CC2)c1C 72.8%
Cc1cc2cc(CCNC(=S)Nc3ccccc3F)c(=O)[nH]c2cc1C 65.9%
